In assay [1] the target is T1, Hmo1 (yeast two-hybrid fusion) (S. cerevisiae) (UniProt Q03973).
T1 sequence: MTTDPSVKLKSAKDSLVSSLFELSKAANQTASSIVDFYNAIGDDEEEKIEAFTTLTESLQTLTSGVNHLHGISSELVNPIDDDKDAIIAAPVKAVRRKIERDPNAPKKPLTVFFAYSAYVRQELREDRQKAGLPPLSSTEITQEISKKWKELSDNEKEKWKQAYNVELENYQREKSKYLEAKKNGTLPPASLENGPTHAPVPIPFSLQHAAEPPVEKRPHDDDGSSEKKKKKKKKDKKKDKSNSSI
Put plainly: two-hybrid; yeast two-hybrid (candidate approach and screens; screening performed by Hybrigenics Services).

The target in assay [2] is T2, GST-Hmo1 (S. cerevisiae) (UniProt Q03973).
T2 sequence: T1 sequence
Put plainly: pull-down; about 5 ug GST-Hmo1 immobilized on glutathione-Sepharose 4B beads, incubated with about 2.5 mg total lysate of Elg1-FLAG yeast cells (G1 arrest, release with or without 0.033% MMS for 20 min) for 2 h at 4°C in Tris pH 7.5, 150 mM NaCl, 1 mM DTT, 1 mM EDTA, 10% glycerol, 0.1% Triton X-100, with or without 0.5 mg/ml ethidium bromide; washes up to 500 mM NaCl; anti-FLAG immunoblot; only the target purified. Background: In western blotting, separated proteins are transferred to a membrane and probed.

For 2 molecules, binding results are on record in PMC3983681.

No constants are given. Whether binding was seen depends on the method and setting. For some assays here: Binding seen in cells or lysates may run through a third protein. Some binding calls cover weakened binding; strength is not graded here. Sequences can lack the tags named with a protein.

B1: Elg1 (yeast two-hybrid fusion) (protein, UniProt Q12050 1-791)
chain: MKRHVSLSDILTGNKRKVRRQDALQITIDDENDTESGTFDARTAKHDDSSVIFLNHSVVKPIEAVSTNHKSAKEFLMTKRTKEKCDDDDDDLIVISDKSPKSETNCSKIALSQEHEDDISIISTSRIKSSLLNERASKIKNFLKHETTDTFKRLNSISKLNEIEPPLPLHQSIFPVGDKELSDRSVDIPLPFRTIPPLNHNFLPSDYESLKDKNSASCIPVRYQAPVLLGTNIKRNTTLTWPQLFKPVTLKQVLIEPKLKLRIKNWIETSFHTLEKPTLRNRLLNRINPNKQQGSGDELANFIVPDLEEDENLRPDFYRNGEANSSLSEFVPLMILHGNSIGKKTLIQTIMREIAGDDNSYQIYEVNSNMNRSKKDLLDILLDFTTTHYVKDSSKRKSDYGLVLFNDVDVLFKEHDRGYWAMISKLCEFSRRPLVLTCKDLSLVPSELIALASEQNSLFHTKKISTSTVYAFLTKYLKSLEIEVCDDWLRDVVKQNNADIRKCLMHLQFWCVDTEADLISSKNRLPVLTSTLGSSVKDISQLTDLLSINDVIGQATLNRSMVRQEIDSTTMTPEKVNTFQDQNLDDEMKLKFDYVIDYKLHLNDPNRQPLLPFELNIYQHIQEQLEARYSYVREANHRLDNEYLVNRFKKMTESTLNFLASRIPKYDHLQSARRTRNSKKISDILNQFKGIYNDETLNENAEIDLLSATTQQIKAEINPFVFEIAKSDANVKNENKQIFELHSENVSERRYKDLVYQLSQEGVLKNVWFNADPSIVVRKWEHLHSGFSKNK
B1: the binding entry in assay [1] is listed as “binds”.

B2: Elg1-FLAG (protein, UniProt Q12050 1-791)
chain: B1 chain
Consider B2, for which the binding result in assay [2] is listed as “binds”.
